Test results from patent US9382517B2, “HCV full-length infectious cell culture systems and applications thereof” (priority 2012, dated 2016).
For at least one compound, name, drawing or mass did not settle the structure. Some entries repeat one wording, which the source may state once for all of them. Some of these results come from one statement about several compounds together. Some compounds share one range, which may span the group rather than tell each member.

Tests used:
TN full-length virus = experiment: HCV antiviral treatment of Huh7.5 cells infected with TN full-length virus (first passage TN_LSGF/A1226G/Q1773H); assay type: cell-based, hepatitis C virus (genotype 1a); conditions: for fold lower EC50 compared to J6/JFH1: TN full-length virus compared to J6/JFH1; for inhibition of TN full-length virus: DAAs 24 hours post-infection, interferon-α2b 24 and 48 hours, HCV positive cells 72 hours post-infection
Experimental: Naïve Huh7.5 cells were infected with first passage virus stock of TN full-length recombinant TN_LSGF/A1226G/Q1773H; the ORF sequence of this virus stock is shown in FIGS. 16 and 17. A J6/JFH1 virus stock was treated in parallel. Antivirals were administered 24 hours post infection at the indicated doses; interferon-α2b was also administered 48 hours post infection. The number of HCV positive cells per well was determined 72 hours post infection. (A) Dose response curves for treatments with lead compound protease inhibitors telaprevir (VX-950), boceprevir (SCH503034), and simeprevir (TMC435), NS5A inhibitor daclatasvir (BMS-790052), and NS5B inhibitor PSI-7977, as well as interferon-α2b. Values are means of triplicate determinations with SEM. (B) Median effective concentrations (EC50) of the used inhibitors against the indicated viruses. Values for EC50 and 95% confidence interval are shown.
HCV antiviral treatment. HCV DAAs were purchased from Acme Bioscience (Palo Alto, Calif.) and dissolved in dimethyl sulfoxide. Inerferon-α2b was purchased from Schering-Plough (Kenilworth, N.J.).
Briefly, Huh7.5 cells grown in poly-D-lysine-coated 96-well plates (Nunc) were infected with HCV and treated with DAAs 24 hours post-infection. Treatment with interferon-α2b was performed at 24 and 48 hours post-infection. Single HCV Core and NS5A positive cells were determined 72 hours post-infection by immunostaining with combination of C7-50 (Enzo Life Sciences) and 9E10 antibodies. Dose response curves were fitted and EC50 values with 95% confidence interval were calculated in GraphPad Prim 4 (Graphpad).

J6 full-length virus = experiment: HCV antiviral treatment of Huh7.5 cells infected with J6 full-length virus (fourth passage J6_LSGΔ33U); assay type: cell-based, hepatitis C virus (genotype 2a); conditions: treatment 24 and 48 hours post-infection, HCV positive cells counted 72 hours post-infection
Experimental: Naïve Huh7.5 cells were infected with indicated viruses, and antiviral treatments were carried out at 24 and 48 hours post-infection. The HCV positive cells were counted 72 hours post-infection as previously described. Fourth passage J6 full-length J6_LSGΔ33U virus (Table 3) was used for treatment. Treatment experiments with recombinants J6^5′UTR-NS2/JFH1, J6^Core-NS2,NS3 protease, NS4A/JFH1 and J6^Core-NS2,NS5A/JFH1 were included for comparison. (A) Treatment with protease inhibitors (boceprevir and TMC435) and the NS5A inhibitor daclatasvir (BMS-790052). (B) Treatment with NS5B inhibitors. (C) Median effective concentrations (EC50) of the used inhibitors against the indicated viruses. *, range of two experiments; experiments with the lowest EC50 shown in A or B. In A and B, values are means of triplicate determinations.
HCV antiviral treatment. HCV antivirals were purchased from Acme Bioscience (Palo Alto, Calif.) and dissolved in dimethyl sulfoxide. Huh7.5 cells grown in poly-D-lysine-coated 96-well plates (Nunc) were infected with HCV and treated with antivirals 24 and 48 hours post-infection as previously described. Single HCV core positive cells were determined by immunostaining with C7-50 (Enzo Life Sciences) 72 hours post-infection.

[1] = test system: J6/JFH1 with J6-specific NS5A; experiment: HCV antiviral treatment of Huh7.5 cells infected with J6/JFH1 with J6-specific NS5A; assay type: cell-based, hepatitis C virus (genotype 2a)

Row | SMILES | fold lower EC50 compared to J6/JFH1 (TN full-length virus) | inhibition of TN full-length virus (TN full-length virus) | inhibition of full-length J6 culture viruses (J6 full-length virus) | sensitivity compared to J6^5′UTR-NS2/JFH1 [1]
1 | COc1ccc2c(O[C@@H]3C[C@H]4C(=O)N[C@]5(C(=O)NS(=O)(=O)C6CC6)C[C@H]5/C=C\CCCCN(C)C(=O)[C@@H]4C3)cc(-c3nc(C(C)C)cs3)nc2c1C [TMC435, simeprevir] | 2-5 fold |  |  | 
2 | CC(C)(C)NC(=O)N[C@H](C(=O)N1C[C@H]2[C@@H]([C@H]1C(=O)NC(CC1CCC1)C(=O)C(N)=O)C2(C)C)C(C)(C)C (stereo partly shown) [boceprevir] | 2-5 fold | dose-dependently inhibited | inhibited | 
3 | COC(=O)N[C@H](C(=O)N1CCC[C@H]1c1nc(-c2ccc(-c3ccc(-c4c[nH]c([C@@H]5CCCN5C(=O)[C@@H](NC(=O)OC)C(C)C)n4)cc3)cc2)c[nH]1)C(C)C [daclatasvir] | 2-5 fold | dose-dependently inhibited | inhibited | highly resistant
4 | CCC[C@H](NC(=O)[C@@H]1[C@H]2CCC[C@H]2CN1C(=O)[C@@H](NC(=O)[C@@H](NC(=O)c1cnccn1)C1CCCCC1)C(C)(C)C)C(=O)C(=O)NC1CC1 [telaprevir] | 2-5 fold | dose-dependently inhibited |  | 
